Measurements taken from patent US8710243B2, “Estrogen receptor ligands” (Karo Bio AB, priority 2009, dated 2014).
Some entries share one result that the patent states for a list of compounds.

By UniProt entry, the sequences of proteins in these tests, tags left out. Residues count along the entry.
UniProt Q92731, 255-530: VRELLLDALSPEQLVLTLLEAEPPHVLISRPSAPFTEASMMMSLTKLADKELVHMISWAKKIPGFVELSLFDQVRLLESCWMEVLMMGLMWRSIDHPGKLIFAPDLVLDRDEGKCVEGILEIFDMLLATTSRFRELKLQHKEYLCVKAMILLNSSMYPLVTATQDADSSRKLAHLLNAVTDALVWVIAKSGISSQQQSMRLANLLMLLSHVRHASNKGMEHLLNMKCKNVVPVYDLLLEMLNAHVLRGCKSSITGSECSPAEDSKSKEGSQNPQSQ
UniProt Q92731, whole entry: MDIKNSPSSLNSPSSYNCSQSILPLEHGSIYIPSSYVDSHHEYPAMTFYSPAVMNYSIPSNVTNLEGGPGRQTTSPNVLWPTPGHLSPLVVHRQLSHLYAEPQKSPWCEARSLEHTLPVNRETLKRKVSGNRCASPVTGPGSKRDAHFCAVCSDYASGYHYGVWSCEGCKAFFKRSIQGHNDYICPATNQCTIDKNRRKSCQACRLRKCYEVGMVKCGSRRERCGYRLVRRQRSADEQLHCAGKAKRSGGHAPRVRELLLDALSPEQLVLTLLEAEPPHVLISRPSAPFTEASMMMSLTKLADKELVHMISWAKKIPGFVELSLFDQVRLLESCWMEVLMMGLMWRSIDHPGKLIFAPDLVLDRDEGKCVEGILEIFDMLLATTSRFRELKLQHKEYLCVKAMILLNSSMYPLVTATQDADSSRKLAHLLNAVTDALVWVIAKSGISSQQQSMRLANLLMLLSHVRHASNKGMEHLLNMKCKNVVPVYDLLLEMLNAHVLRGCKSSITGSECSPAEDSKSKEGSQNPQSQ

Assays:
[1] = target: T1, human ERβ (ERβ-LBD) (Homo sapiens, UniProt Q92731); assay: Binding Assay 1: Estrogen Receptor Binding Assay (SPA, 3H-E2 displacement), ERβ; settings: ERβ over ERα
T1 construct: ERβ (ERβ-LBD, pET-N-AT #1, aa 255-530); biotin acceptor tag, biotinylated in vivo (pBirA); made in house; host or cells: E. coli BL21 (DE3) pBirA

[2] = target: T2, human estrogen receptor beta (Homo sapiens, UniProt Q92731); assay: Transactivation Assay 2 in human embryonic kidney 293 cells stably transfected with pERE2-ALP and human estrogen receptor beta; assay type: cell-based; settings: transactivation assays 1 and 2; ERβ over ERα
T2 construct: expressed in transfected cells; host or cells: HEK293 (CRL-1573)
Method: Transactivation Assay 2: Transactivation Assay in Human Embryonic Kidney 293 Cells Stably Transfected with pERE2-ALP and Human Estrogen Receptor Beta
Generation of stable HEK293 cell lines (CRL-1573; American Type Culture Collection) expressing the reporter vector pERE2-ALP and human estrogen receptor beta (hERβ 530) have been described (Mol Pharmacol 1998, 54, 105-112; Endocrinology 2002, 143, 1558-1561).
The cells were seeded in 384-well plates at 12 500 cells per well in Ham's F12 Coon's modification (without phenol red) with 10% dextran-coated charcoal treated (DCC) fetal bovine serum (FBS), 2 mM L-glutamine and 50 μg/ml gentamicin. After 24 h incubation (37° C., 5% CO2) the seeding medium was discarded and replaced with 20 μl Ham's F12 Coon's modification (without phenol red) with 1.5% DCC-FCS, 2 mM L-glutamine and supplemented with 100 U/ml penicillin and 100 μg/ml streptomycin. The selected compounds were added to the wells in 12 concentrations ranging from […] to 33 μM. The compounds were dissolved in 100% dimethylsulfoxide (DMSO) and the final concentration of DMSO in the assay was 0.1%. After 72 h incubation (37° C., 5% CO2) the medium was assayed for ALP activity by a chemiluminescence assay; a 10 μl aliquot of the conditioned medium was mixed with 100 μl assay buffer (0.1 M diethanolamine, 1 mM MgC12) and 0.5 mM disodium 3-(4-methoxyspiro 1,2-dioxetane-3,2′-(5′-chloro)-tricyclo[3.3.1.13,7]decan-4-yl)phenyl phosphate (CSPD) (Tropix, Applied Biosystems) and incubated for 20 min at 37° C. and 15 min at room temperature before measurement of the chemiluminescent signal (one second per well) in a Wallac Microbeta Trilux 1450-028 (PerkinElmer). The ALP activity expressed in LCPS is directly proportional to the level of ALP expressed by the cells. The half maximal effective concentrations of the test compounds (EC50) were calculated from the curves fitted to the concentration-response data with a four parameter logistic model in XLfit software version 2.0 (IDBS) or later.

| SMILES | selectivity for the estrogen receptor β-subtype in the binding assay [1] | selectivity for the estrogen receptor β-subtype in the transactivation assays [2] |
| --- | --- | --- |
| CC=C(C)c1c(-c2ccc(O)cc2)c2ccccc2n1C(N)=NO (stereo in doubt) [Example 7, 2-((E)-but-2-en-2-yl)-N′-hydroxy-3-(4-hydroxyphenyl)-1H-indole-1-carboximidamide] | ≥ 50 | – |
| Cc1noc(C)c1-c1c(-c2ccc(O)cc2)c2ccccc2n1C#N [Example 1, 2-(3,5-dimethylisoxazol-4-yl)-3-(4-hydroxyphenyl)-1H-indole-1-carbonitrile] | ≥ 50 | ≥ 50 |
| Cc1noc(C)c1-c1c(-c2ccc(O)cc2)c2ccccc2n1C(N)=NO [Example 2, 2-(3,5-dimethylisoxazol-4-yl)-N′-hydroxy-3-(4-hydroxyphenyl)-1H-indole-1-carboximidamide] | ≥ 50 | ≥ 50 |
| Cc1noc(C)c1-c1c(-c2ccc(O)cc2)c2ccccc2n1C(N)=O [Example 3, 2-(3,5-dimethylisoxazol-4-yl)-3-(4-hydroxyphenyl)-1H-indole-1-carboxamide] | ≥ 50 | ≥ 50 |
| Cc1noc(C)c1-c1c(-c2ccc(O)cc2)c2ccccc2n1S(C)(=O)=O [Example 6, 4-(2-(3,5-dimethylisoxazol-4-yl)-1-(methylsulfonyl)-1H-indol-3-yl)phenol] | ≥ 50 | ≥ 50 |
| CCNC(=O)n1c(-c2c(C)noc2C)c(-c2ccc(O)cc2)c2ccccc21 [Example 8, 2-(3,5-dimethylisoxazol-4-yl)-N-ethyl-3-(4-hydroxyphenyl)-1H-indole-1-carboxamide] | ≥ 50 | ≥ 50 |
| Cc1csc(C)c1-c1c(-c2ccc(O)cc2)c2ccccc2n1C(N)=NO [Example 10, 2-(2,4-dimethylthiophen-3-yl)-N′-hydroxy-3-(4-hydroxyphenyl)-1H-indole-1-carboximidamide] | ≥ 50 | ≥ 50 |
| Cc1csc(C)c1-c1c(-c2ccc(O)cc2)c2ccccc2n1C(N)=O [Example 11, 2-(2,4-dimethylthiophen-3-yl)-3-(4-hydroxyphenyl)-1H-indole-1-carboxamide] | ≥ 50 | ≥ 50 |
| Cc1cccc(C)c1-c1c(-c2ccc(O)cc2)c2ccccc2n1C(N)=NO [Example 12, 2-(2,6-dimethylphenyl)-N′-hydroxy-3-(4-hydroxyphenyl)-1H-indole-1-carboximidamide] | ≥ 50 | ≥ 50 |
| Cc1noc(C)c1-c1c(-c2ccc(O)cc2)c2ccccc2n1C(=O)NC(C)C [Example 13, 2-(3,5-dimethylisoxazol-4-yl)-3-(4-hydroxyphenyl)-N-isopropyl-1H-indole-1-carboxamide] | – | ≥ 50 |
| CCNC(=O)n1c(-c2c(C)csc2C)c(-c2ccc(O)cc2)c2ccccc21 [Example 15, 2-(2,4-dimethylthiophen-3-yl)-N-ethyl-3-(4-hydroxyphenyl)-1H-indole-1-carboxamide] | ≥ 50 | ≥ 50 |
| Cc1noc(C)c1-c1c(-c2cc(F)c(O)c(F)c2)c2ccccc2n1C(N)=NO [Example 16, 3-(3,5-difluoro-4-hydroxyphenyl)-2-(3,5-dimethylisoxazol-4-yl)-N′-hydroxy-1H-indole-1-carboximidamide] | ≥ 50 | ≥ 50 |
| Cc1noc(C)c1-c1c(-c2ccc(O)c(F)c2F)c2ccccc2n1C(N)=NO [Example 17, 3-(2,3-difluroo-4-hydroxyphenyl)-2-(3,5-dimethylisoxazol-4-yl)-N′-hydroxy-1H-indole-1-carboximidamide] | ≥ 50 | ≥ 50 |
| Cc1noc(C)c1-c1c(-c2ccc(O)cc2F)c2ccccc2n1C(N)=NO [Example 18, 2-(3,5-dimethylisoxazol-4-yl)-3-(2-fluoro-4-hydroxyphenyl)-N′-hydroxy-1H-indole-1-carboximidamide] | ≥ 50 | ≥ 50 |
| Cc1noc(C)c1-c1c(-c2cc(F)c(O)cc2F)c2ccccc2n1C(N)=NO [Example 19, 3-(2,5-difluoro-4-hydroxyphenyl)-2-(3,5-dimethylisoxazol-4-yl)-N′-hydroxy-1H-indole-1-carboximidamide] | – | ≥ 50 |
| Cc1noc(C)c1-c1c(-c2ccc(O)c(F)c2)c2ccccc2n1C(N)=NO [Example 20, 2-(3,5-dimethylisoxazol-4-yl)-3-(3-fluoro-4-hydroxyphenyl)-N′-hydroxy-1H-indole-1-carboximidamide] | ≥ 50 | ≥ 50 |
| Cc1csc(C)c1-c1c(-c2ccc(O)cc2)c2cc(Cl)ccc2n1C(N)=NO [Example 21, 5-chloro-2-(2,4-dimethylthiophen-3-yl)-N′-hydroxy-3-(4-hydroxyphenyl)-1H-indole-1-carboximidamide] | ≥ 50 | – |
| Cc1noc(C)c1-c1c(-c2ccc(O)cc2)c2cc(Cl)ccc2n1C(N)=NO [Example 22, 5-chloro-2-(3,5-dimethylisoxazol-4-yl)-N′-hydroxy-3-(4-hydroxyphenyl)-1H-indole-1-carboximidamide] | ≥ 50 | ≥ 50 |
| Cc1coc(C)c1-c1c(-c2ccc(O)cc2)c2ccccc2n1C(N)=NO [Example 23, 2-(2,4-dimethylfuran-3-yl)-N′-hydroxy-3-(4-hydroxyphenyl)-1H-indole-1-carboximidamide] | ≥ 50 | ≥ 50 |
| Cc1nsc(C)c1-c1c(-c2ccc(O)cc2)c2ccccc2n1C(N)=NO [Example 24, 2-(3,5-dimethylisothiazol-4-yl)-N′-hydroxy-3-(4-hydroxyphenyl)-1H-indole-1-carboximidamide] | ≥ 50 | ≥ 50 |
